According to patent US11698357B2, “Method for screening, isolating and purifying analytes” (CHANG GUNG UNIVERSITY, priority 2019, dated 2023):

System: MES-SA cells
Experiment: ODEP manipulation: maximum velocity of moving light bar that can manipulate drug-treated cells
Type: cell-based, human
Description: For the electric conditions, the magnitude and frequency of the ODEP were set at 10 V and 2 MHz, which can reduce cell aggregation and accelerate cell sorting and isolation, as shown in FIG. 2A. In addition, the ODEP manipulation force, a net force between the ODEP force and friction force, generated on the manipulated cells (i.e., the live and dead cancer cells with and without drug resistance) was then experimentally evaluated. Briefly, in a steady state, the ODEP manipulation force on a cell is balanced by the viscous drag of the surrounding fluid. […]
Therefore, according to Stokes' law, the ODEP manipulation force generated on the cells can then be experimentally evaluated through measurements of the maximum velocity of a moving light bar that can manipulate these cells (i.e., live and dead MES-SA cells and Dx5 cells). […] After the live MES-SA and Dx5 cells were treated with 5.0 μg ml^−1 doxorubicin for 48 hours, the maximum velocity of the moving light bar that can manipulate live Dx5 cells was measured to be 206.7±41.0 μm s^−1, showing no significant difference (p>0.05) with that of the MES-SA and Dx5 cells before drug treatment. […]

## COc1cccc2c1C(=O)c1c(O)c3c(c(O)c1C2=O)C[C@@](O)(C(=O)CO)C[C@@H]3O[C@H]1C[C@H](N)[C@H](O)[C@H](C)O1 [doxorubicin]
drug-treated dead MES-SA cells, 5.0 μg ml^−1 doxorubicin for 48 hours
  maximum velocity of the moving light bar that can manipulate cells: 20.6±6.8 μm s^−1
Live MES-SA cells after 5.0 μg ml^−1 doxorubicin for 48 hours, 10 V, 2 MHz
  maximum velocity of the moving light bar that can manipulate cells: 78.3±54.4 μm s^−1
